Measurements as given in publication PMC3314957.
These are yes or no findings as the source states them, for the method shown. Binding seen in cells or lysates may run through a third protein. For some assays here: Binding calls can cover weak binding; strength is not graded here.

Experiments:
[1] = target: T1, Salmonella guanine nucleotide exchange factor (GEF) SopE (Salmonella enterica serovar Typhimurium) (UniProt O52623); assay: pull-down; PL beads decorated with purified SopE or ARNO in porcine brain extract with GTPγS that was preincubated with purified PBD or GAT; Coomassie-stained SDS-PAGE of the bead-bound proteins; both purified
T1 sequence: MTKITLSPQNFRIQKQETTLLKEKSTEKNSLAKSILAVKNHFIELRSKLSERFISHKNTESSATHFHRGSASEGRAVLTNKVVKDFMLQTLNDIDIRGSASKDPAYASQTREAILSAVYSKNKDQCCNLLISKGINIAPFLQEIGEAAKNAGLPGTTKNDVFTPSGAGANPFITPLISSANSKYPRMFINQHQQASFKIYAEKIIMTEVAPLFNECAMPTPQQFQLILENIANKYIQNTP

[2] = target: T1, Salmonella guanine nucleotide exchange factor (GEF) SopE (Salmonella enterica serovar Typhimurium); assay: pull-down; purified GEF (SopE, ARNO or ARNO E156D) bound on silica beads coated with a phospholipid bilayer (PL beads), incubated in porcine brain extract with GTPγS (20 min, RT); beads isolated at 1000 g, washed ten times in HKSM; recruited proteins analysed by SDS-PAGE, mass spectrometry and immunoblotting; only the target purified

Substance	binding [1]	binding [2]
GAT^165–314 (domain or fragment)	no binding	
Rac1		binds
